At least one compound was matched to its structure with a doubt left.
Columns and labels:
[1] = tested on: MDA-MB-231SA-GFP6 human breast cancer cells; assay: Breast cancer bone metastasis model (intracardiac inoculation, 25-day study, preventive setting); type: in vivo; conditions: for Total osteolytic lesion count / Mean osteolytic lesion area / Total osteolytic lesion area: x-ray at sacrifice
Source text: The objective of this study was to test the efficacy of three different doses of the exemplary compound 1 (Antroquinonol) from Example 1 on breast cancer bone metastases in female athymic nude mice in a 25-day study in preventive setting. The following 5 experimental groups were included in the study:
The vehicle was corn oil. All groups included 15 mice that are 5 weeks of age at the beginning of the study. Based on the body weights the animals were randomized to five groups. On day 0, the animals were given intracardiac inoculation of human breast cancer cells. Body weights were determined twice a week. At sacrifice, the osteolytic lesions and whole body tumor burden were quantified by x-ray and fluorescence imaging, respectively. The test compound and vehicle were administered by oral gavage twice a day. Blood samples for analysing TRACP 5b were collected at days 0, 17 and 24. The animals were sacrificed at day 25, or earlier if they became moribund. Tissue samples were collected for histology and embedded in paraffin from left and right tibia and femur for possible future histomorphometric analyses. Gross necropsy was performed to all animals at the end of the study, and all macroscopic signs were recorded.
(§1) Test compound 1 (99%, 1005 mg/ml) was obtained in liquid form. Three 50× stock solutions were prepared in corn oil (75 mg/ml, 150 mg/ml and 225 mg/ml) and stored them in dark at +4° C. The dosing solutions of 1.5, 3.0 and 4.5 mg/ml were prepared from the stock solutions by diluting the stock solutions in corn oil 1:50. The dosing solutions were prepared once a week and stored in dark at +4° C. The dosing volume was 10 ml/kg. The test compound was administered by oral gavage twice a day with dosing intervals of 10+14 hours. The dosings were performed at the same time every day.
(§2) Zoledronic acid was used as a reference compound. 100 μl of Zometa® (Novartis Pharma GmbH, Nürnberg, Germany) 4 mg/5 ml infusion concentrate was diluted in 3.9 ml of sterile saline (0.9% NaCl) to obtain the administration concentration of 0.02 mg/ml. This solution was prepared once during the study and stored at +4° C. The dosing volume was 5 ml/kg, resulting in the dose of 0.1 mg/kg. The reference compound was administered SC twice in the study: at days 1 and 14.
Female athymic nude mice (Hsd: Athymic nude-nu) were obtained from Harlan Laboratories B.V. (Horst, The Netherlands). MDA-MB-231SA-GFP6 human breast cancer cells were received originally from Prof. Theresa Guise (Indiana University, Indianapolis, Ind., USA) and transfected with pTurboGFP-N vector (Evrogen JSC, Moscow, Russia).
This experiment utilized an animal model that closely resembles the characteristics of breast cancer metastatic disease or condition in humans. This model can be effectively used for testing the effects of cancer drug candidates on the metastasis of breast cancer cells to bone. In this model, human breast cancer cells are inoculated into the left cardiac ventricle of 5 weeks old female athymic nude mice. This mouse strain is immunodeficient, allowing rapid spreading of the human cancer cells. Within two weeks after the inoculation, the animals develop osteolytic bone metastases that can be visualized by X-ray radiography. In addition, soft tissue metastases are observed in approximately 40% of the animals, especially in adrenal glands. At 3 weeks, the bone metastases are clearly visible in X-ray radiographs and the animals have developed cachexia and lost weight substantially. The animals are sacrificed typically at 3-4 weeks after inoculation, and their hindlegs are collected for further histomorphometric analysis.
Female Athymic nude mice (Hsd: Athymic nude-nu, obtained from Harlan, The Netherlands) were used for this study. The age of the animals was 5 weeks, and their body weights were approximately 16-22 g at the beginning of the study. The mice were specific pathogen free (SPF) and isolator-reared animals. […]

[2] = tested on: PC-3 human prostate cancer cells; assay: Prostate cancer bone metastasis model (intratibial inoculation, 5-week study, preventive setting); type: in vivo, male athymic nude mice
Source text: The objective of this study was to test the efficacy of three different doses of the test compound 1 on prostate cancer bone metastases in male athymic nude mice in a 5-week study in preventive setting. The following 5 experimental groups were included in the study:
The vehicle was corn oil. All groups included 15 mice that were 7 weeks of age at the beginning of the study. Based on the body weights the animals were randomized to five groups. On day 0, the animals were given an intratibial inoculation of human prostate cancer cells. Body weights were determined twice a week. The development of osteoblastic and osteolytic lesions were followed by x-ray. The test compound and vehicle were administered by oral gavage twice a day. The animals were sacrificed at day 35. Tissue samples were collected for histology and embedded in paraffin from left and right tibia and femur for possible future histomorphometric analyses. Gross necropsy was performed to all animals at the end of the study, and all macroscopic signs were recorded.
as §1, with “compound 1 (99.85%, specific density: 1.005) was obtained” for “compound 1 (99%, 1005 mg/ml) was obtained”, “dosings were started at day 1 and performed at” for “dosings were performed at”
as §2, with “[…]” for “100 μl”
Male athymic nude mice (Hsd: Athymic nude-nu, obtained from Harlan, The Netherlands) and PC-3 human prostate cancer cells (ATCC) were used for this study.
In this model, human prostate cancer cells are inoculated into the left proximal tibia of 5-7 week old male athymic nude mice. This mouse strain is immunodeficient, allowing rapid spreading of the human cancer cells. The bone lesions are mixed, being mainly osteolytic but also containing an osteoblastic component. Within four weeks after the inoculation part of the animals have already developed some bone lesions, that can be visualized by X-ray radiography. At 7 weeks, the bone metastases are clearly visible. The animals are sacrificed at 7-8 weeks after inoculation, and their bones are collected for further histomorphometric analysis.
Male athymic nude mice (Hsd: Athymic nude-nu, obtained from Harlan, The Netherlands) were used for this study. The age of the animals was 7 weeks, and their body weights were approximately 18-25 g at the beginning of the study. The mice were specific pathogen free (SPF) and isolator-reared animals. Correct age and good clinical health were qualifications for the study. The minimum quarantine and acclimatization period for the mice was 7 days. Allocation to groups was performed by randomization procedure based on body weight. The animals were marked with tail and ear marks. The mice were housed in Scantainer®, 5 mice per cage. In case of fighting, some of the animals had to be isolated. For intratibial inoculations the mice were anesthetized with i.p. injections of Xylazin (5-6 mg/kg) and Ketamine (92-109 mg/kg). For x-ray imaging the mice were anesthetized with inhalation of isoflurane. […]

[3] = histomorphometry, relative to intraosseous area, 30 mg/kg/d po, vs control
[4] = histomorphometry, relative to intraosseous area, 60 mg/kg/d po, vs control
[5] = histomorphometry, relative to intraosseous area, 0.1 mg/kg sc days 1 and 14, vs control
[6] = histomorphometry, 0.1 mg/kg sc days 1 and 14, vs control
[7] = 0.1 mg/kg sc days 1 and 14, vs control
[8] = histomorphometry, 0.1 mg/kg sc days 1 and 14

Q: With `COC1=C(OC)C(O)C(C/C=C(\C)CC/C=C(\C)CCC=C(C)C)C(C)C1=O` (centres unmarked) [Compound 1, 4-hydroxy-2,3-dimethoxy-6-methyl-5-(3,7,11-trimethyldodeca-2,6,10-trienyl)cyclohex-2-enone] as the compound, how does the “serum PINP at day 24” value ([1]; Group 5 (90 mg/kg/d po) compared to Group 1 (control)) read?
A: lower PINP activity

Q: What about the intraosseous tumor area ([1]; dose 30 mg/kg/d) of the same compound?
A: increased

Q: What about the “number of osteolytic lesions” value ([1]; dose 90 mg/kg/d) of the same compound?
A: decreased

Q: And the “whole body tumor burden” value ([1]; doses 30, 60 and 90 mg/kg/d)?
A: Statistically significant effects on the whole body tumor burden were not found

Q: What about the “mean osteolytic lesion size” value ([1]; doses 60 and 90 mg/kg/d) of the same compound?
A: decreased

Q: And the total osteolytic area ([1]; doses 60 and 90 mg/kg/d)?
A: decreased

Q: And the Tumor area [1, 3]?
A: ↑*

Q: What about the Intraosseous area ([1]; histomorphometry, 30 mg/kg/d po, vs control) of the same compound?
A: ↑**

Q: And the Trabecular bone area ([1]; histomorphometry, all doses)?
A: did not have any effect

Q: What about the cortical bone area ([1]; histomorphometry, all doses) of the same compound?
A: did not have any effect

Q: What about the “Total osteolytic lesion count” value ([1]; 30 mg/kg/d po, vs control) of the same compound?
A: ↑*

Q: And the “Mean osteolytic lesion area” value ([1]; 60 mg/kg/d po, vs control)?
A: ↓**

Q: What about the “Total osteolytic lesion area” value ([1]; 60 mg/kg/d po, vs control) of the same compound?
A: ↓*

Q: What about the “Mean osteolytic lesion area” value ([1]; 90 mg/kg/d po, vs control) of the same compound?
A: ↓*

Q: What about the “Total osteolytic lesion area” value ([1]; 90 mg/kg/d po, vs control) of the same compound?
A: ↓**

Q: What about the “Total osteolytic lesion count” value ([1]; 90 mg/kg/d po, vs control) of the same compound?
A: ↓*

Q: What about the “overall effect in the model” value [2] of the same compound?
A: positive, bone protective effects

Q: And the “Fractures, d28” value ([2]; 30 mg/kg/d po, vs control)?
A: ↓*

Q: And the “Fractures, sacr.” value ([2]; 30 mg/kg/d po, vs control)?
A: ↓*

Q: And the “Fractures, d28” value ([2]; 60 mg/kg/d po, vs control)?
A: ↓*

Q: And the “Fractures, sacr.” value ([2]; 60 mg/kg/d po, vs control)?
A: ↓*

Q: And the “Mean osteolytic lesion area, sacr.” value ([2]; 60 mg/kg/d po, vs control)?
A: ↓*

Q: What about the “Osteoblastic lesions, sacr.” value ([2]; 60 mg/kg/d po, vs control) of the same compound?
A: ↓*

Q: And the “Total osteolytic lesion area, d28” value ([2]; 60 mg/kg/d po, vs control)?
A: ↓*

Q: And the “Total osteolytic lesion area, sacr.” value ([2]; 60 mg/kg/d po, vs control)?
A: ↓**

Q: What about the “Mean osteolytic lesion area, d28” value ([2]; 90 mg/kg/d po, vs control) of the same compound?
A: ↓*

Q: What about the Trabecular bone area ([2]; all doses (30, 60, 90 mg/kg/d)) of the same compound?
A: increased

Q: What about the intraosseous tumor area ([2]; dose 60 mg/kg/d) of the same compound?
A: decreased

Q: And the “osteoblastic reactions at sacrifice” value ([2]; dose 60 mg/kg/d)?
A: inhibited

Q: What about the osteolytic lesion area ([2]; dose 60 mg/kg/d) of the same compound?
A: decreased

Q: What about the “fractures at day 28 and at sacrifice” value ([2]; doses 30 and 60 mg/kg/d) of the same compound?
A: inhibited

Q: And the Trabecular bone area [2, 3]?
A: ↑*

Q: And the Trabecular bone area [2, 4]?
A: ↑***

Q: And the intraosseous tumor area [2, 4]?
A: ↓*

Q: What about the Trabecular bone area ([2]; histomorphometry, relative to intraosseous area, 90 mg/kg/d po, vs control) of the same compound?
A: ↑*

Q: Which results are given for `O=P(O)(O)C(O)(Cn1ccnc1)P(=O)(O)O` [Zoledronic acid, reference compound]?
A: Trabecular bone area ([1]; 0.1 mg/kg sc days 1 and 14): Trabecular bone area was increased; formation of osteolytic lesions ([1]; 0.1 mg/kg sc days 1 and 14): prevented the formation of osteolytic lesions; serum PINP at day 24 ([1]; Group 2 (0.1 mg/kg sc days 1 and 14) compared to Group 1 (control)): lower PINP activity; Trabecular bone area [1, 5]: ↑*; Intraosseous area [1, 6]: ↑*; PINP ([1]; serum, day 17, 0.1 mg/kg sc days 1 and 14): PINP was decreased at day 17; PINP change at day 17 ([1]; serum, 0.1 mg/kg sc days 1 and 14, vs control): ↓*; Mean osteolytic lesion area [1, 7]: ↓***; Total osteolytic lesion area [1, 7]: ↓***; Total osteolytic lesion count [1, 7]: ↓***; formation of osteoblastic lesions ([2]; 0.1 mg/kg sc days 1 and 14): inhibited; formation of osteolytic lesions ([2]; 0.1 mg/kg sc days 1 and 14): inhibited; fractures ([2]; 0.1 mg/kg sc days 1 and 14): inhibited; intraosseous tumor area ([2]; 0.1 mg/kg sc days 1 and 14): decreased; number of osteoclasts at the tumor-bone interface ([2]; 0.1 mg/kg sc days 1 and 14): decreased; total tumor area ([2]; 0.1 mg/kg sc days 1 and 14): decreased; osteolytic lesion count ([2]; 0.1 mg/kg sc days 1 and 14, result of individual lesions prevented from fusing together): increase; Fractures, d28 [2, 7]: ↓*; Fractures, sacr. [2, 7]: ↓***; Mean osteolytic lesion area, d28 [2, 7]: ↓***; Mean osteolytic lesion area, sacr. [2, 7]: ↓***; Osteoblastic lesions, sacr. [2, 7]: ↓***; Total osteolytic lesion area, d28 [2, 7]: ↓***; Total osteolytic lesion area, sacr. [2, 7]: ↓***; Total osteolytic lesion count, d28 [2, 7]: ↑*; Total osteolytic lesion count, sacr. [2, 7]: ↑**; Trabecular bone area [2, 5]: ↑***; intraosseous tumor area [2, 5]: ↓**; Trabecular bone area [2, 8]: increased; cortical bone area [2, 8]: increased; Osteoclast number at tumor-bone interface [2, 6]: ↓***; cortical bone area [2, 6]: ↑***; total tumor area [2, 6]: ↓**
